Measured values reported in doi:10.1101/2020.02.26.966374.
Like-named read-outs stand apart in the source and are kept apart here. These are yes or no findings as the source states them, for the method shown. Binding seen in cells or lysates may run through a third protein. Some binding calls cover weakened binding; strength is not graded here. Sequences can lack the tags named with a protein.

T1: DGAT1-mCherry (mouse) (UniProt Q9Z2A7)
T1 sequence: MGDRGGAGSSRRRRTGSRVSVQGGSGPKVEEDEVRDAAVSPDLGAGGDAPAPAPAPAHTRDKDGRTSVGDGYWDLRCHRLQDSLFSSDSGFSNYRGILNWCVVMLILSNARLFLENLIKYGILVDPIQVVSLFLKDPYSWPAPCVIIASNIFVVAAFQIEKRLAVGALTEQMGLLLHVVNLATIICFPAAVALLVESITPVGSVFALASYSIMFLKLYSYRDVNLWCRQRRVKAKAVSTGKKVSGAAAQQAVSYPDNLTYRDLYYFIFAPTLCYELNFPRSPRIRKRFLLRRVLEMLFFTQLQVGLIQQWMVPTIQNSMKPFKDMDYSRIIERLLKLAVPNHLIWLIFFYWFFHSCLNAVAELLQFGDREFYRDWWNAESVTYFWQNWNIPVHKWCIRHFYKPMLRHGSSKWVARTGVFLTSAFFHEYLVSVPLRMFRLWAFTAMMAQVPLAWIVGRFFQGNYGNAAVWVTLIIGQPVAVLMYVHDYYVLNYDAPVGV

T2: DGAT2-mCherry (mouse) (UniProt Q9DCV3)
T2 sequence: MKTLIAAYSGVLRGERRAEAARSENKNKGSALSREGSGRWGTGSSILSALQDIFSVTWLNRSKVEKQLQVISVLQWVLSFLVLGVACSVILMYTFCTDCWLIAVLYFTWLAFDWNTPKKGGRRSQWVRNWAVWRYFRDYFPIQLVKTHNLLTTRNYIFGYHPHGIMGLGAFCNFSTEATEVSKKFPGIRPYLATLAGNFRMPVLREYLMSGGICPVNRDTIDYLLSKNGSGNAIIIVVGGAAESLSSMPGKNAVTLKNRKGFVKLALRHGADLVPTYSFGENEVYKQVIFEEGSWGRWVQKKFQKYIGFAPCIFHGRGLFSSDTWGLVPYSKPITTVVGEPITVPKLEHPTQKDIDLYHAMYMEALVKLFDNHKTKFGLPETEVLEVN

T3: PLIN2-mCherry (mouse) (UniProt P43883)
T3 sequence: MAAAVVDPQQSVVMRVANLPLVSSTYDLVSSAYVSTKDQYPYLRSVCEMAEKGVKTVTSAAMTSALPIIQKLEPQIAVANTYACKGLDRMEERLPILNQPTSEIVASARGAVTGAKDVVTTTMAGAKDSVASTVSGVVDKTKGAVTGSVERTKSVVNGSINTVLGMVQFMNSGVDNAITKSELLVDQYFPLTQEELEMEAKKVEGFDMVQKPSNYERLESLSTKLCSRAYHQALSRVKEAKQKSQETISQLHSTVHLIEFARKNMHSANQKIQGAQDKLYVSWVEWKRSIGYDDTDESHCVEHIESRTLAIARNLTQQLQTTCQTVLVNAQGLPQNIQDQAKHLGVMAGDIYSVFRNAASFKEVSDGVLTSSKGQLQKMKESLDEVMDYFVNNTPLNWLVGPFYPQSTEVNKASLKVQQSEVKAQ

T4: PLIN3-mCherry (mouse) (UniProt Q9DBG5)
T4 sequence: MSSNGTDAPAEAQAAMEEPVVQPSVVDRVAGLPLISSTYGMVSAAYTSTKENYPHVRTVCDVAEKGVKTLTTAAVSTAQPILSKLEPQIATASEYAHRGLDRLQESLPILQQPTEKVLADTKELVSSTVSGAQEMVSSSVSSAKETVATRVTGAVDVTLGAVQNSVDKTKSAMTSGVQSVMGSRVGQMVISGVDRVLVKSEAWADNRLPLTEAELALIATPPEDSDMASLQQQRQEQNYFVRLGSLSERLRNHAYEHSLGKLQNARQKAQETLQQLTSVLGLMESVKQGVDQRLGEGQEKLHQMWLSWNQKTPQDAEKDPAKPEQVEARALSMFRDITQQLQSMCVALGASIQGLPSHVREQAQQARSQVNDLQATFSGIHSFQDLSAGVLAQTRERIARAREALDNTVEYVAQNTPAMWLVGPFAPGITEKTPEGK

T5: GPAT1-EGFP (mouse) (UniProt Q61586)
T5 sequence: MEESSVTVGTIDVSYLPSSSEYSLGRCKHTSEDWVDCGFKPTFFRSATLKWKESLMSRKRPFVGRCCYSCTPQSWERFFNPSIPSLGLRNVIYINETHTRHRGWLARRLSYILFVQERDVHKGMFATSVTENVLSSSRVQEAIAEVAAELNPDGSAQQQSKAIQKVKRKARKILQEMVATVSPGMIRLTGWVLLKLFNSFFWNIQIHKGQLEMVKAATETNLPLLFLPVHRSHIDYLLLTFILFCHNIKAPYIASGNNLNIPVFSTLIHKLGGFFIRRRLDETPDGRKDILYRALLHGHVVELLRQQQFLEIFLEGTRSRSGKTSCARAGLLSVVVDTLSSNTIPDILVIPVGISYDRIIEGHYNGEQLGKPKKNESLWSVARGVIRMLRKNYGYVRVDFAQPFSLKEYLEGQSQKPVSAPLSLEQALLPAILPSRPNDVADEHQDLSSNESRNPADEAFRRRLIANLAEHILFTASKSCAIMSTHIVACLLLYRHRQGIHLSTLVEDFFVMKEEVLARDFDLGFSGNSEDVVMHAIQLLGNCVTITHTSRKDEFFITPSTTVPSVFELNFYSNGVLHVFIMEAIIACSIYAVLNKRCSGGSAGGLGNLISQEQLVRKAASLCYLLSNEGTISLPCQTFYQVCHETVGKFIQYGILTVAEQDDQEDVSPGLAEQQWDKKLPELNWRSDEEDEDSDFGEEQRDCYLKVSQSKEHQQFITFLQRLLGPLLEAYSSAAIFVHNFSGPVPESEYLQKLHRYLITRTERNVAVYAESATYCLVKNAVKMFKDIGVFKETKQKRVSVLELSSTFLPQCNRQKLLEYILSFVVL

T6: GPAT4-EGFP (mouse) (UniProt Q8K2C8)
T6 sequence: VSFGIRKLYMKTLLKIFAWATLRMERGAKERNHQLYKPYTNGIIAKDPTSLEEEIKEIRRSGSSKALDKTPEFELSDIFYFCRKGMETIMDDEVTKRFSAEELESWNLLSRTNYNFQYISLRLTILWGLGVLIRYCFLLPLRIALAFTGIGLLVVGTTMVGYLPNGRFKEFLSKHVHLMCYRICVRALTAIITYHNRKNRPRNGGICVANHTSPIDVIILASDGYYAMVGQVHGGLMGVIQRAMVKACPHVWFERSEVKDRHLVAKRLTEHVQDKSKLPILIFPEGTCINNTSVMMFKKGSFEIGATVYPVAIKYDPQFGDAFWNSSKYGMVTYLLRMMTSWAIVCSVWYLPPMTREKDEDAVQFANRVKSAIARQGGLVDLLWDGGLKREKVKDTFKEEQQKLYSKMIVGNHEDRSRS


Tests used:
Assay in all cases: FRET or BRET
DGAT1-mCherry (mouse) [1] = target: T1, DGAT1-mCherry (mouse)
DGAT2-mCherry (mouse) [2] = target: T2, DGAT2-mCherry (mouse)
DGAT1-mCherry (mouse) [3] = target: T1, DGAT1-mCherry (mouse); remark: listed apart in the source
DGAT2-mCherry (mouse) [4] = target: T2, DGAT2-mCherry (mouse); remark: listed apart in the source
PLIN2-mCherry (mouse) = target: T3, PLIN2-mCherry (mouse)
PLIN3-mCherry (mouse) = target: T4, PLIN3-mCherry (mouse)
GPAT1-EGFP (mouse) = target: T5, GPAT1-EGFP (mouse)
GPAT4-EGFP (mouse) = target: T6, GPAT4-EGFP (mouse)

| binding (DGAT1-mCherry (mouse) [1]) | binding (DGAT2-mCherry (mouse) [2]) | binding (DGAT1-mCherry (mouse) [3]) | binding (DGAT2-mCherry (mouse) [4]) | binding (PLIN2-mCherry (mouse)) | binding (PLIN3-mCherry (mouse)) | binding (GPAT1-EGFP (mouse)) | binding (GPAT4-EGFP (mouse)) | Binder |
| --- | --- | --- | --- | --- | --- | --- | --- | --- |
| binds | binds | binds | binds | no binding | no binding |  |  | HILPDA-mEGFP (protein, UniProt Q9JLS0 1-64) MKFMLNLYVLGIMLTLLSIFVRVMESLGGLLESPLPGSSWITRGQLANTQPPKGLPDHPSRGVQ |
|  |  |  |  |  |  | no binding | no binding | HILPDA-mCherry (protein, UniProt Q9JLS0 1-64) MKFMLNLYVLGIMLTLLSIFVRVMESLGGLLESPLPGSSWITRGQLANTQPPKGLPDHPSRGVQ |
